Measurements reported in PubChem BioAssay AID686943 (Drosophila RNAi Screening Center, 2013).
The screen tested about 23,000 reagents; this is a random part of those that have a named target and a result. 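Extra replicates exist only for a retested subset of genes; insulin dose and duration not given; both raised and lowered dpERK matter.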 The numbers tell different reagents against one gene apart. Further read-outs or replicates are left out here. Not given: the amount of reagent, the time to read-out.

- Screen: 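Search across the genome for regulators of signalling from receptor tyrosine kinase to ERK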 (primary screen)
- Cells: Drosophila S2R+ haemocyte-like cells expressing YFP-tagged ERK (Rolled)
- Knock-down reagent: long dsRNA against Drosophila genes
- Treatment: insulin stimulation versus unstimulated cells; dose and duration not given
- Measured: 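Per-plate z-scores of phospho-ERK immunostaining normalised to YFP-tagged ERK, measured with and without insulin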
- Scale: replicate 1, z-score of dpERK with insulin: higher = more active ERK per ERK-YFP after insulin

CG17029 → replicate 1, z-score of dpERK with insulin = 0.15
Gpxl (Glutathione peroxidase-like) → replicate 1, z-score of dpERK with insulin = 0.01
Lcch3 (Ligand-gated chloride channel homolog 3) → replicate 1, z-score of dpERK with insulin = 0.43
CG5757 → replicate 1, z-score of dpERK with insulin = 0.11
TM9SF2 (Transmembrane 9 superfamily protein member 2) → replicate 1, z-score of dpERK with insulin = 0.62
CG7987 → replicate 1, z-score of dpERK with insulin = 0.93
Sbp2 (SECIS-binding protein 2) → replicate 1, z-score of dpERK with insulin = -1.04
CG14820 → replicate 1, z-score of dpERK with insulin = 0.75
CG4619 → replicate 1, z-score of dpERK with insulin = 0.47
CG42232 #1 → replicate 1, z-score of dpERK with insulin = -0.44
CG42232 #2 → replicate 1, z-score of dpERK with insulin = 0.31
Mal-A1 (Maltase A1) → replicate 1, z-score of dpERK with insulin = 0.02
Aplip1 (APPL-interacting protein 1) #1 → replicate 1, z-score of dpERK with insulin = 0.39
Aplip1 (APPL-interacting protein 1) #2 → replicate 1, z-score of dpERK with insulin = 0.02
Aplip1 (APPL-interacting protein 1) #3 → replicate 1, z-score of dpERK with insulin = 0.17
ATPsynepsilonL (ATP synthase, epsilon subunit-like) → replicate 1, z-score of dpERK with insulin = -1.69
l(3)80Fj (lethal (3) 80Fj) #1 → replicate 1, z-score of dpERK with insulin = -2.21
l(3)80Fj (lethal (3) 80Fj) #2 → replicate 1, z-score of dpERK with insulin = -0.29
CG11666 → replicate 1, z-score of dpERK with insulin = 0.2
CG13654 → replicate 1, z-score of dpERK with insulin = 1.21
RpL11 (Ribosomal protein L11) → replicate 1, z-score of dpERK with insulin = -3.71

3 entries already listed, ordered by “replicate 1, z-score of dpERK with insulin”, lowest first:
ATPsynepsilonL (ATP synthase, epsilon subunit-like) → replicate 1, z-score of dpERK with insulin = -1.69
Aplip1 (APPL-interacting protein 1) #2 → replicate 1, z-score of dpERK with insulin = 0.02
Aplip1 (APPL-interacting protein 1) #3 → replicate 1, z-score of dpERK with insulin = 0.17

More results:
Ir67c (Ionotropic receptor 67c) → replicate 1, z-score of dpERK with insulin = -0.07
CG31913 → replicate 1, z-score of dpERK with insulin = -0.66
SMC5 (Structural maintenance of chromosomes 5) → replicate 1, z-score of dpERK with insulin = 0.65
ND-MNLL (NADH dehydrogenase (ubiquinone) MNLL subunit) → replicate 1, z-score of dpERK with insulin = -0.84
gammaCOP (Coat Protein (coatomer) gamma) → replicate 1, z-score of dpERK with insulin = -0.29
ND-B17 (NADH dehydrogenase (ubiquinone) B17 subunit) → replicate 1, z-score of dpERK with insulin = -0.07
ppan (peter pan) → replicate 1, z-score of dpERK with insulin = 0.36
SPR (Sex peptide receptor) #1 → replicate 1, z-score of dpERK with insulin = 1.24
SPR (Sex peptide receptor) #2 → replicate 1, z-score of dpERK with insulin = -1.31
SPR (Sex peptide receptor) #3 → replicate 1, z-score of dpERK with insulin = 0.05
SPR (Sex peptide receptor) #4 → replicate 1, z-score of dpERK with insulin = 0.11
CG4707 → replicate 1, z-score of dpERK with insulin = -0.81
CG43308 → replicate 1, z-score of dpERK with insulin = -0.04
ClC-c (Chloride channel-c) → replicate 1, z-score of dpERK with insulin = -0.93
Cpr56F (Cuticular protein 56F) → replicate 1, z-score of dpERK with insulin = 0.23
Coa8 (Cytochrome c oxidase assembly factor 8) → replicate 1, z-score of dpERK with insulin = 0.44
Rop (Ras opposite) → replicate 1, z-score of dpERK with insulin = 0.48
CG31418 → replicate 1, z-score of dpERK with insulin = 0.01
CrebA (Cyclic-AMP response element binding protein A) → replicate 1, z-score of dpERK with insulin = -0.64
